Residue numbers refer to the chain shown, from its start. Results are given in words; binding and its absence hold for the method and conditions named. In cells and extracts the contact can be indirect. Some binding calls cover weakened binding; strength is not graded here. Sequences can lack the tags named with a protein.
Legend:
[1] = target: T1, muscle-specific receptor tyrosine kinase (MuSK), wild type (human) (UniProt O15146); assay: co-IP; immunoprecipitation from the surface of transiently transfected HEK-293T cells: cells incubated 48 hr after transfection with 5 µg antibody at 37°C for 3 hr, washed, lysed in cold lysis buffer (10 mM Tris pH 7.5, 100 mM NaCl, 1 mM EDTA, 1% Triton X-100), Dynabeads, western blot
T1 sequence: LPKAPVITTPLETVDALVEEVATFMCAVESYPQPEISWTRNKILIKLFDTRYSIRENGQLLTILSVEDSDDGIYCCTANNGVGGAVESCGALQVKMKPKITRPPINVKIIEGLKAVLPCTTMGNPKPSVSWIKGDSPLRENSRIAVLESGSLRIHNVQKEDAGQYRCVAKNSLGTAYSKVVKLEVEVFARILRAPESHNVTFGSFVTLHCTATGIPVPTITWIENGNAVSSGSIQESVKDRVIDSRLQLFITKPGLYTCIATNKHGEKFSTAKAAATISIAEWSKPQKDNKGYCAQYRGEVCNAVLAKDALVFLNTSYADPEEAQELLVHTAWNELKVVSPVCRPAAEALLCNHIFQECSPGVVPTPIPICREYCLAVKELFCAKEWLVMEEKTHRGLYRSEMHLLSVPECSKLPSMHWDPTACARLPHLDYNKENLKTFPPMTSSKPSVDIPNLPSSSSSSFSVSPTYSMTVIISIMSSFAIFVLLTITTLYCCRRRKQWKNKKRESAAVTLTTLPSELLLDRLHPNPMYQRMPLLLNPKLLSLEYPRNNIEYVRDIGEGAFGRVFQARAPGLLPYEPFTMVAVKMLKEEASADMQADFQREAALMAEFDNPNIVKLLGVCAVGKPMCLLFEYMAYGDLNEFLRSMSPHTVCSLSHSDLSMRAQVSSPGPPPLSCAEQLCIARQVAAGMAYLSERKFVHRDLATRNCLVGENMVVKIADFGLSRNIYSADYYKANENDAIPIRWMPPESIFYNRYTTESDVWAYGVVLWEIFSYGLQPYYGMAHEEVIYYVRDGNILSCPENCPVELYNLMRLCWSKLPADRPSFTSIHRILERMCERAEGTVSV

[2] = target: T2, muscle-specific receptor tyrosine kinase (MuSK) p.Ala617Val (human) (UniProt O15146); assay: as above
T2 sequence: T1 sequence with A594V

binding [1]: binds
binding [2]: binds
B1: DOK7, EGFP-tagged (protein, UniProt Q18PE1 1-504)
chain: MTEAALVEGQVKLRDGKKWKSRWLVLRKPSPVADCLLMLVYKDKSERIKGLRERSSLTLEDICGLEPGLPYEGLVHTLAIVCLSQAIMLGFDSHEAMCAWDARIRYALGEVHRFHVTVAPGTKLESGPATLHLCNDVLVLARDIPPAVTGQWKLSDLRRYGAVPSGFIFEGGTRCGYWAGVFFLSSAEGEQISFLFDCIVRGISPTKGPFGLRPVLPDPSPPGPSTVEERVAQEALETLQLEKRLSLLSHAGRPGSGGDDRSLSSSSSEASHLDVSASSRLTAWPEQSSSSASTSQEGPRPAAAQAAGEAMVGASRPPPKPLRPRQLQEVGRQSSSDSGIATGSHSSYSSSLSSYAGSSLDVWRATDELGSLLSLPAAGAPEPSLCTCLPGTVEYQVPTSLRAHYDTPRSLCLAPRDHSPPSQGSPGNSAARDSGGQTSAGCPSGWLGTRRRGLVMEAPQGSEATLPGPAPGEPWEAGGPHAGPPPAFFSACPVCGGLKVNPPP
